This passage reports binding results from PMC12579238.

The target in this test is T1, CLN7 (human (endogenous in SH-SY5Y)) (UniProt Q8NHS3).
T1 sequence: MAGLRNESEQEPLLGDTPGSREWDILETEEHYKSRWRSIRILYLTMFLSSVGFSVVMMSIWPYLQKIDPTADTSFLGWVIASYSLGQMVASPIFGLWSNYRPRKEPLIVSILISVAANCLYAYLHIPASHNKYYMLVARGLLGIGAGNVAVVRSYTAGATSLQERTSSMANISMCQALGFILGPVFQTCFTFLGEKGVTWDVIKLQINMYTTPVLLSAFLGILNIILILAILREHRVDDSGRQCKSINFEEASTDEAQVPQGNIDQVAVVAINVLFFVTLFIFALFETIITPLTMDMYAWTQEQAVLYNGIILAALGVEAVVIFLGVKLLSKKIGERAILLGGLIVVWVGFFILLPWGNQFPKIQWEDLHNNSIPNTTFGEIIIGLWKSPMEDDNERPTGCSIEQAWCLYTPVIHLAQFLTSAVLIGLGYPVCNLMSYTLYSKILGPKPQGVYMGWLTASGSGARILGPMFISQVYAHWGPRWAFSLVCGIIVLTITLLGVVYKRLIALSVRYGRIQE
The experiment in a line: affinity purification with mass spectrometry; endogenous CLN7 immunoprecipitated from 2.5 mg SH-SY5Y lysate with a polyclonal anti-CLN7 antibody raised against L9 (351-421aa, Proteintech) on G-sepharose beads; IgG as non-specific binding control; 4 independent replicates; cells under steady state culture conditions.

No constants are given. Whether binding was seen depends on the method and setting. Binding seen in cells or lysates may run through a third protein. A yes stands for co-enrichment or nearness to the bait. Other partners may have been found.

B1: DCAF7 (protein, UniProt P61962 1-342)
chain: MSLHGKRKEIYKYEAPWTVYAMNWSVRPDKRFRLALGSFVEEYNNKVQLVGLDEESSEFICRNTFDHPYPTTKLMWIPDTKGVYPDLLATSGDYLRVWRVGETETRLECLLNNNKNSDFCAPLTSFDWNEVDPYLLGTSSIDTTCTIWGLETGQVLGRVNLVSGHVKTQLIAHDKEVYDIAFSRAGGGRDMFASVGADGSVRMFDLRHLEHSTIIYEDPQHHPLLRLCWNKQDPNYLATMAMDGMEVVILDVRVPCTPVARLNNHRACVNGIAWAPHSSCHICTAADDHQALIWDIQQMPRAIEDPILAYTAEGEINNVQWASTQPDWIAICYNNCLEILRV
Regarding B1, the binding entry is given as “binds”.

B2: DHX29 (protein, UniProt Q7Z478 1-1369)
chain: MGGKNKKHKAPAAAVVRAAVSASRAKSAEAGIAGEAQSKKPVSRPATAAAAAAGSREPRVKQGPKIYSFNSTNDSSGPANLDKSILKVVINNKLEQRIIGVINEHKKQNNDKGMISGRLTAKKLQDLYMALQAFSFKTKDIEDAMTNTLLYGGDLHSALDWLCLNLSDDALPEGFSQEFEEQQPKSRPKFQSPQIQATISPPLQPKTKTYEEDPKSKPKKEEKNMEVNMKEWILRYAEQQNEEEKNENSKSLEEEEKFDPNERYLHLAAKLLDAKEQAATFKLEKNKQGQKEAQEKIRKFQREMETLEDHPVFNPAMKISHQQNERKKPPVATEGESALNFNLFEKSAAATEEEKDKKKEPHDVRNFDYTARSWTGKSPKQFLIDWVRKNLPKSPNPSFEKVPVGRYWKCRVRVIKSEDDVLVVCPTILTEDGMQAQHLGATLALYRLVKGQSVHQLLPPTYRDVWLEWSDAEKKREELNKMETNKPRDLFIAKLLNKLKQQQQQQQQHSENKRENSEDPEESWENLVSDEDFSALSLESANVEDLEPVRNLFRKLQSTPKYQKLLKERQQLPVFKHRDSIVETLKRHRVVVVAGETGSGKSTQVPHFLLEDLLLNEWEASKCNIVCTQPRRISAVSLANRVCDELGCENGPGGRNSLCGYQIRMESRACESTRLLYCTTGVLLRKLQEDGLLSNVSHVIVDEVHERSVQSDFLLIILKEILQKRSDLHLILMSATVDSEKFSTYFTHCPILRISGRSYPVEVFHLEDIIEETGFVLEKDSEYCQKFLEEEEEVTINVTSKAGGIKKYQEYIPVQTGAHADLNPFYQKYSSRTQHAILYMNPHKINLDLILELLAYLDKSPQFRNIEGAVLIFLPGLAHIQQLYDLLSNDRRFYSERYKVIALHSILSTQDQAAAFTLPPPGVRKIVLATNIAETGITIPDVVFVIDTGRTKENKYHESSQMSSLVETFVSKASALQRQGRAGRVRDGFCFRMYTRERFEGFMDYSVPEILRVPLEELCLHIMKCNLGSPEDFLSKALDPPQLQVISNAMNLLRKIGACELNEPKLTPLGQHLAALPVNVKIGKMLIFGAIFGCLDPVATLAAVMTEKSPFTTPIGRKDEADLAKSALAMADSDHLTIYNAYLGWKKARQEGGYRSEITYCRRNFLNRTSLLTLEDVKQELIKLVKAAGFSSSTTSTSWEGNRASQTLSFQEIALLKAVLVAGLYDNVGKIIYTKSVDVTEKLACIVETAQGKAQVHPSSVNRDLQTHGWLLYQEKIRYARVYLRETTLITPFPVLLFGGDIEVQHRERLLSIDGWIYFQAPVKIAVIFKQLRVLIDSVLRKKLENPKMSLENDKILQIITELIKTENN
For the molecule B2, the binding result is “binds”.

B3: DDX46 (protein, UniProt Q7L014 1-1031)
chain: MGRESRHYRKRSASRGRSGSRSRSRSPSDKRSKRGDDRRSRSRDRDRRRERSRSRDKRRSRSRDRKRLRRSRSRERDRSRERRRSRSRDRRRSRSRSRGRRSRSSSPGNKSKKTENRSRSKEKTDGGESSKEKKKDKDDKEDEKEKDAGNFDQNKLEEEMRKRKERVEKWREEQRKKAMENIGELKKEIEEMKQGKKWSLEDDDDDEDDPAEAEKEGNEMEGEELDPLDAYMEEVKEEVKKFNMRSVKGGGGNEKKSGPTVTKVVTVVTTKKAVVDSDKKKGELMENDQDAMEYSSEEEEVDLQTALTGYQTKQRKLLEPVDHGKIEYEPFRKNFYVEVPELAKMSQEEVNVFRLEMEGITVKGKGCPKPIKSWVQCGISMKILNSLKKHGYEKPTPIQTQAIPAIMSGRDLIGIAKTGSGKTIAFLLPMFRHIMDQRSLEEGEGPIAVIMTPTRELALQITKECKKFSKTLGLRVVCVYGGTGISEQIAELKRGAEIIVCTPGRMIDMLAANSGRVTNLRRVTYVVLDEADRMFDMGFEPQVMRIVDNVRPDRQTVMFSATFPRAMEALARRILSKPIEVQVGGRSVVCSDVEQQVIVIEEEKKFLKLLELLGHYQESGSVIIFVDKQEHADGLLKDLMRASYPCMSLHGGIDQYDRDSIINDFKNGTCKLLVATSVAARGLDVKHLILVVNYSCPNHYEDYVHRAGRTGRAGNKGYAYTFITEDQARYAGDIIKALELSGTAVPPDLEKLWSDFKDQQKAEGKIIKKSSGFSGKGFKFDETEQALANERKKLQKAALGLQDSDDEDAAVDIDEQIESMFNSKKRVKDMAAPGTSSVPAPTAGNAEKLEIAKRLALRINAQKNLGIESQDVMQQATNAILRGGTILAPTVSAKTIAEQLAEKINAKLNYVPLEKQEEERQDGGQNESFKRYEEELEINDFPQTARWKVTSKEALQRISEYSEAAITIRGTYFPPGKEPKEGERKIYLAIESANELAVQKAKAEITRLIKEELIRLQNSYQPTNKGRYKVL
For the molecule B3, the binding entry was “binds”.

B4: DDX27 (protein, UniProt Q96GQ7 1-765)
chain: MLADLGLIGTIGEDDEVPVEPESDSGDEEEEGPIVLGRRQKALGKNRSADFNPDFVFTEKEGTYDGSWALADVMSQLKKKRAATTLDEKIEKVRKKRKTEDKEAKSGKLEKEKEAKEGSEPKEQEDLQENDEEGSEDEASETDYSSADENILTKADTLKVKDRKKKKKKGQEAGGFFEDASQYDENLSFQDMNLSRPLLKAITAMGFKQPTPIQKACIPVGLLGKDICACAATGTGKTAAFALPVLERLIYKPRQAPVTRVLVLVPTRELGIQVHSVTRQLAQFCNITTCLAVGGLDVKSQEAALRAAPDILIATPGRLIDHLHNCPSFHLSSIEVLILDEADRMLDEYFEEQMKEIIRMCSHHRQTMLFSATMTDEVKDLASVSLKNPVRIFVNSNTDVAPFLRQEFIRIRPNREGDREAIVAALLTRTFTDHVMLFTQTKKQAHRMHILLGLMGLQVGELHGNLSQTQRLEALRRFKDEQIDILVATDVAARGLDIEGVKTVINFTMPNTIKHYVHRVGRTARAGRAGRSVSLVGEDERKMLKEIVKAAKAPVKARILPQDVILKFRDKIEKMEKDVYAVLQLEAEEKEMQQSEAQINTAKRLLEKGKEAVVQEPERSWFQTKEERKKEKIAKALQEFDLALRGKKKRKKFMKDAKKKGEMTAEERSQFEILKAQMFAERLAKRNRRAKRARAMPEEEPVRGPAKKQKQGKKSVFDEELTNTSKKALKQYRAGPSFEERKQLGLPHQRRGGNFKSKSRYKRRK
Turning to B4, the binding result is “binds”.

B5: THRAP3 (protein, UniProt Q9Y2W1 1-955)
chain: MSKTNKSKSGSRSSRSRSASRSRSRSFSKSRSRSRSLSRSRKRRLSSRSRSRSYSPAHNRERNHPRVYQNRDFRGHNRGYRRPYYFRGRNRGFYPWGQYNRGGYGNYRSNWQNYRQAYSPRRGRSRSRSPKRRSPSPRSRSHSRNSDKSSSDRSRRSSSSRSSSNHSRVESSKRKSAKEKKSSSKDSRPSQAAGDNQGDEAKEQTFSGGTSQDTKASESSKPWPDATYGTGSASRASAVSELSPRERSPALKSPLQSVVVRRRSPRPSPVPKPSPPLSSTSQMGSTLPSGAGYQSGTHQGQFDHGSGSLSPSKKSPVGKSPPSTGSTYGSSQKEESAASGGAAYTKRYLEEQKTENGKDKEQKQTNTDKEKIKEKGSFSDTGLGDGKMKSDSFAPKTDSEKPFRGSQSPKRYKLRDDFEKKMADFHKEEMDDQDKDKAKGRKESEFDDEPKFMSKVIGANKNQEEEKSGKWEGLVYAPPGKEKQRKTEELEEESFPERSKKEDRGKRSEGGHRGFVPEKNFRVTAYKAVQEKSSSPPPRKTSESRDKLGAKGDFPTGKSSFSITREAQVNVRMDSFDEDLARPSGLLAQERKLCRDLVHSNKKEQEFRSIFQHIQSAQSQRSPSELFAQHIVTIVHHVKEHHFGSSGMTLHERFTKYLKRGTEQEAAKNKKSPEIHRRIDISPSTFRKHGLAHDEMKSPREPGYKAEGKYKDDPVDLRLDIERRKKHKERDLKRGKSRESVDSRDSSHSRERSAEKTEKTHKGSKKQKKHRRARDRSRSSSSSSQSSHSYKAEEYTEETEEREESTTGFDKSRLGTKDFVGPSERGGGRARGTFQFRARGRGWGRGNYSGNNNNNSNNDFQKRNREEEWDPEYTPKSKKYYLHDDREGEGSDKWVSRGRGRGAFPRGRGRFMFRKSSTSPKWAHDKFSGEEGEIEDDESGTENREEKDNIQPTTE
On to B5, for which the binding entry is given as “binds”.

B6: DARS2 (protein, UniProt Q6PI48 48-645)
chain: VVRTNTCGELRSSHLGQEVTLCGWIQYRRQNTFLVLRDFDGLVQVIIPQDESAASVKKILCEAPVESVVQVSGTVISRPAGQENPKMPTGEIEIKVKTAELLNACKKLPFEIKNFVKKTEALRLQYRYLDLRSFQMQYNLRLRSQMVMKMREYLCNLHGFVDIETPTLFKRTPGGAKEFLVPSREPGKFYSLPQSPQQFKQLLMVGGLDRYFQVARCYRDEGSRPDRQPEFTQIDIEMSFVDQTGIQSLIEGLLQYSWPNDKDPVVVPFPTMTFAEVLATYGTDKPDTRFGMKIIDISDVFRNTEIGFLQDALSKPHGTVKAICIPEGAKYLKRKDIESIRNFAADHFNQEILPVFLNANRNWNSPVANFIMESQRLELIRLMETQEEDVVLLTAGEHNKACSLLGKLRLECADLLETRGVVLRDPTLFSFLWVVDFPLFLPKEENPRELESAHHPFTAPHPSDIHLLYTEPKKARSQHYDLVLNGNEIGGGSIRIHNAELQRYILATLLKEDVKMLSHLLQALDYGAPPHGGIALGLDRLICLVTGSPSIRDVIAFPKSFRGHDLMSNTPDSVPPEELKPYHIRVSKPTDSKAERAH
Take B6: the binding result was “binds”.

B7: DDX56 (protein, UniProt Q9NY93 1-547)
chain: MEDSEALGFEHMGLDPRLLQAVTDLGWSRPTLIQEKAIPLALEGKDLLARARTGSGKTAAYAIPMLQLLLHRKATGPVVEQAVRGLVLVPTKELARQAQSMIQQLATYCARDVRVANVSAAEDSVSQRAVLMEKPDVVVGTPSRILSHLQQDSLKLRDSLELLVVDEADLLFSFGFEEELKSLLCHLPRIYQAFLMSATFNEDVQALKELILHNPVTLKLQESQLPGPDQLQQFQVVCETEEDKFLLLYALLKLSLIRGKSLLFVNTLERSYRLRLFLEQFSIPTCVLNGELPLRSRCHIISQFNQGFYDCVIATDAEVLGAPVKGKRRGRGPKGDKASDPEAGVARGIDFHHVSAVLNFDLPPTPEAYIHRAGRTARANNPGIVLTFVLPTEQFHLGKIEELLSGENRGPILLPYQFRMEEIEGFRYRCRDAMRSVTKQAIREARLKEIKEELLHSEKLKTYFEDNPRDLQLLRHDLPLHPAVVKPHLGHVPDYLVPPALRGLVRPHKKRKKLSSSCRKAKRAKSQNPLRSFKHKGKKFRPTAKPS
For B7, the binding entry is “binds”.
